Data: patent US20120093810A1
Residue numbers refer to the chain shown, from its start. Names and notes keep the numbering of the source. Results are given in words; binding and its absence hold for the method and conditions named. Some binding calls cover weakened binding; strength is not graded here.

B1: EV2038 CDR-H3 variant V132K (antibody, V domains shown)
VH: QVQLQQWGAGLLKPSETLSLTCAVYGGSFSGYYWGWIRQPPGKGLEWIGEINHSGSANSNPSLKSRVTMSVDTSKNQFSLKVSSVTAADTAVYFCARVTRDLEWIPGDYYMDKWGKGTTVTVSS
VL: QSVLTQPPSASGTPGQRVSISCSGSLSNIGTNYVYWYQQLPGTAPKLLIFKNNQRPSGVPDRFSGSKSGTSASLAISGLRSEDEADYYCAAWDDSLNGYVFGTGTKVTVLG
B2: EV2038 CDR-H3 variant I124V (antibody, V domains shown)
VH: B1 VH with I105V, K113V
VL: B1 VL

Columns and labels:
[1] = molecular target: GST-fused HCMV-AD1 (AD1 region of HCMV glycoprotein gB) (human cytomegalovirus, AD169 strain) (UniProt F5HB53); experiment: ELISA on solid-phased AD1, CHO supernatant antibody
[2] = molecular target: GST-fused HCMV-AD1 (AD1 region of HCMV glycoprotein gB) (human cytomegalovirus, AD169 strain) (UniProt F5HB53); experiment: ELISA on solid-phased AD1 (referred to in Example 8)
[3] = molecular target: GST-fused HCMV-AD1 (AD1 region of HCMV glycoprotein gB) (human cytomegalovirus, AD169 strain) (UniProt F5HB53); experiment: ELISA on solid-phased AD1 (referred to in Example 10)
[4] = molecular target: GST-fused HCMV-AD1 (AD1 region of HCMV glycoprotein gB) (human cytomegalovirus, AD169 strain) (UniProt F5HB53); experiment: ELISA on solid-phased AD1; member taken from the consensus in paragraph 333

Binder | binding [1] | binding [2] | binding [3] | binding [4]
B1 | binds | binds | binds | –
B2 | – | binds | – | binds
